# Measurements reported in the supplement of paper PMC8104966.
# ± gives the standard deviation of the averaged measurements. This is one part of the list. This data set is noisy: repeats of one test often differ as much as different tests do.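 U2OS cells carrying ACE2 were mixed with U2OS cells carrying full-length spike, and fusion was scored by imaging as the share of nuclei showing both cell types' fluorescent markers. A compound counts as an inhibitory hit when it is non-toxic and its fusion z-score falls below -3, meaning more than three standard deviations below the plate's DMSO wells.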
# Tested on: U2OS ACE2 x SARS-CoV-2 spike co-culture
# Test: cell-cell fusion (fraction fused) z-score vs plate DMSO control; higher = more fusion
# Conditions: 30 µM; 5 h; toxicity class: non-toxic, passed QC
row,SMILES,cell-cell fusion (z-score)
1,CN1CCc2cccc3c2C1Cc1ccc(O)c(O)c1-3.Cl (stereo not drawn),-3.46 ± 2.3
2,O=C([O-])c1cc(=O)c2c(OCC(O)COc3cccc4oc(C(=O)[O-])cc(=O)c34)cccc2o1.[Na+].[Na+] [Sodium cromoglycate],inactive: 1.46
3,O=C1C(SCCO)=C(SCCO)C(=O)c2ccccc21,active: -7.1
4,CCOc1nc2cccc(C(=O)O)c2n1Cc1ccc(-c2ccccc2-c2nnn[nH]2)cc1,inactive: 1.64
5,COc1c(C)c2c(c(O)c1C/C=C(\C)CCC(=O)O)C(=O)OC2 [Mycophenolic (Mycophenolate)],inactive: 1.85
6,COc1ccc2cc([C@H](C)C(=O)[O-])ccc2c1.[Na+] [Naproxen sodium],inactive: 1.85
7,COc1cc(O)c(C(C)=O)c(O)c1,inactive: 2.07
8,CO/N=C(\C(=O)NC1C(=O)N2C(C(=O)OCOC(=O)C(C)(C)C)=C(/C=C\c3scnc3C)CSC12)c1csc(N)n1 (stereo not drawn),inactive: 2.13
9,COc1ccc2cc([C@H](C)C(=O)O)ccc2c1,inactive: -0.318
10,OCc1ccc(-c2nn(Cc3ccccc3)c3ccccc23)o1,inactive: 1.58
11,CC1=CC2C(CC1=O)C(C)=CCC2C(C)C (stereo not drawn),inactive: 2.2
12,CC(C)CC(NP(=O)([O-])O[C@@H]1O[C@@H](C)[C@H](O)[C@@H](O)[C@H]1O)C(=O)NC(Cc1c[nH]c2ccccc12)C(=O)[O-].[Na+].[Na+] (stereo partly drawn) [Phosphoramidon disodium],active: -5.72
13,CSc1nc2cc(Cl)c(Oc3cccc(Cl)c3Cl)cc2[nH]1,inactive: 2.46
14,CNC(=C[N+](=O)[O-])NCCSCc1csc(CN(C)C)n1 [Nizatidine],inactive: 2.62
15,O=C(NCc1ccccc1)c1csc(Nc2ccncn2)n1 [Thiazovivin],inactive: 1.23
16,O=c1cc(-c2cccc(O)c2)oc2cc(O)ccc12,inactive: 1.74
17,CO/N=C(\C(=O)N[C@@H]1C(=O)N2C(C(=O)O)=C(C[n+]3cccc4c3CCC4)CS[C@H]12)c1csc(N)n1.O=S(=O)([O-])O [Cefpirome sulfate],inactive: 1.49
18,COc1ccc(-c2coc3cc(O)ccc3c2=O)cc1,inactive: 2.4
19,O=C1c2ccccc2C(=O)c2c(NCCc3ccc(O)cc3)ccc(NCCc3ccc(O)cc3)c21,active: -4.15
20,O=c1cc(-c2ccc(O)cc2)oc2cc(O)ccc12,inactive: 0.552
21,"CN(C)c1nc(N)c(C(=O)N=C(N)N)nc1Cl.Cl [5-(N,N-Dimethyl)amiloride hydrochloride]",inactive: 1.45
22,CC1(C)S[C@@H]2[C@H](NC(=O)[C@H](N)c3ccccc3)C(=O)N2[C@H]1C(=O)[O-].[Na+] [Ampicillin sodium],inactive: 1
23,COc1ccc([C@@H]2CC(=O)c3c(O)cc(O)cc3O2)cc1O,inactive: 1.98
24,COc1ccnc(CS(=O)c2nc3cc(OC(F)F)ccc3[n-]2)c1OC.[Na+] (stereo not drawn) [Pantoprazole sodium],inactive: 1.76

row,SMILES,cell-cell fusion (z-score)
1,CC1(C)S[C@@H]2[C@H](NC(=O)Cc3ccccc3)C(=O)N2[C@H]1C(=O)[O-].[K+],inactive: 0.297
2,CO/N=C(/C(=O)N[C@@H]1C(=O)N2C(C(=O)[O-])=C(COC(C)=O)CS[C@H]12)c1csc(N)n1.[Na+],inactive: 1.13
3,Cc1nnc(S)nc1O,inactive: 1.31
4,CCOC(=O)[C@H](CCc1ccccc1)N[C@@H](C)C(=O)N1[C@H](C(=O)O)C[C@H]2CCCC[C@@H]21 [Trandolapril],inactive: 1.1
5,CC(=O)O[C@]1(C(C)=O)CCC2C3C=C(C)C4=CC(=O)CCC4(C)C3CCC21C (stereo partly drawn),inactive: 0.172
6,COc1cc2c3cc1Oc1c(OC)c(OC)cc4c1[C@@H](Cc1cccc(c1)Oc1ccc(c(O)c1)C[C@@H]3N(C)CC2)N(C)CC4.Cl.Cl,inactive: 1.54
7,CN1CCN(c2ccc3nc(-c4c(N)c5c(F)cccc5[nH]c4=O)[nH]c3c2)CC1 [Dovitinib (TKI-258)],inactive: 1.51
8,CCC1(c2ccccc2)C(=O)NCNC1=O [Primidone],active: -4.48
9,CCC1(c2ccccc2)C(=O)NCNC1=O,inactive: 1.53
10,Br.CCCN(CCC)C1CCc2cccc(O)c2C1 (racemic) [(±)-8-Hydroxy-DPAT hydrobromide],inactive: 1.76
11,O.OC[C@@H](O)C(O[C@@H]1O[C@H](CO)[C@H](O)[C@H](O)[C@H]1O)[C@H](O)[C@@H](O)CO (stereo partly drawn),inactive: 1.26
12,CC(C)[N+](C)(CCC(C(N)=O)(c1ccccc1)c1ccccc1)C(C)C.[I-],inactive: 0.637
13,Cc1cc(O)cc(=O)o1,inactive: 1.6
14,CC[C@H](NC(=O)c1c(C)c(-c2ccccc2)nc2ccccc12)c1ccccc1,inactive: 1.35
15,COc1ccc2c(c1)CCC1C2CC[C@@]2(C)C1CC[C@@H]2O (stereo partly drawn),inactive: 0.579
16,C[N+]1(C)[C@@H]2CC[C@H]1C[C@@H](OC(=O)C(O)c1ccccc1)C2.[Br-] (stereo partly drawn) [Homatropine Methylbromide],inactive: 2.01
17,C[C@@H](O)[C@H](N)C(=O)O [threonine],inactive: -0.533
18,C[C@@H](O)[C@H](N)C(=O)O,inactive: 1.42
19,CC(Cc1ccc(OCC(=O)[O][Na])cc1)NCC(O)c1cccc(Cl)c1 (stereo not drawn),inactive: 0.383
20,Cc1ccc(O)c([C@H](CCN(C(C)C)C(C)C)c2ccccc2)c1.O=C(O)[C@H](O)[C@@H](O)C(=O)O [Tolterodine],inactive: 1.63
21,CCCc1cc(=O)[nH]c(=S)[nH]1,inactive: 1.59
22,CC(C)(NS(=O)(=O)c1ccc(Oc2ccc(F)cc2)cc1)C(=O)NO,-4.56 ± 3.1
23,CC(C)[C@@H]1CC[C@@H](C)C[C@H]1OC(=O)c1ccccc1,inactive: 2.07
24,Br.CC(N)Cc1ccc(O)cc1 (stereo not drawn),inactive: 1.11

# Exported tab-delimited: entries from further up.
row	SMILES	cell-cell fusion (z-score)
12	CC(C)CC(NP(=O)([O-])O[C@@H]1O[C@@H](C)[C@H](O)[C@@H](O)[C@H]1O)C(=O)NC(Cc1c[nH]c2ccccc12)C(=O)[O-].[Na+].[Na+] (stereo partly drawn) [Phosphoramidon disodium]	active: -5.72
14	CNC(=C[N+](=O)[O-])NCCSCc1csc(CN(C)C)n1 [Nizatidine]	inactive: 2.62
24	COc1ccnc(CS(=O)c2nc3cc(OC(F)F)ccc3[n-]2)c1OC.[Na+] (stereo not drawn) [Pantoprazole sodium]	inactive: 1.76
19	CC(Cc1ccc(OCC(=O)[O][Na])cc1)NCC(O)c1cccc(Cl)c1 (stereo not drawn)	inactive: 0.383
